According to patent publication US9403875B2, “Cage-like bifunctional chelators, copper-64 radiopharmaceuticals and PET imaging using the same” (UNIVERSITY OF SOUTHERN CALIFORNIA, priority 2009, dated 2016):
Some entries share one result that the patent states for a list of compounds.

Tested on: U87 MG human glioblastoma cell line (integrin αvβ3-positive)
Test: Cell uptake study in U87 MG cells
Type: cell-based
Conditions: 37° C., 0.5-2 h
Experimental: U87 MG human glioblastoma cell line (integrin αvβ3-positive) was obtained from the American Type Culture Collection (ATCC, Manassas, Va.) and maintained under standard conditions according to ATCC as following: The U87 MG glioma cells were grown in Gibco's Dulbecco's medium supplemented with 10% fetal bovine serum (FBS), 100 IU/mL penicillin, and 100 μg/mL streptomycin (Invitrogen Co, Carlsbad, Calif.), at 37° C. in humidified atmosphere containing 5% CO2. The U87 MG glioma cells were grown in culture until sufficient cells were available.
The cell uptake study was performed as described in the literature with some modifications. […] The tumor cells were then washed three times with chilled PBS and harvested by 0.1 N NaOH solution containing 0.5% sodium dodecyl sulfate (SDS). The cell suspensions were collected and measured in the gamma counter.

N=C(N)NCCC[C@@H]1NC(=O)[C@H](CCCCNC(=O)c2ccc(CNC34CNCCNCC(N)(CNCCNC3)CNCCNC4)cc2)NC(=O)[C@@H](Cc2ccc(O)cc2)NC(=O)[C@H](CC(=O)O)NC(=O)CNC1=O [^64Cu-AmBaSar-RGD, metal not drawn]
activity internalized in U87 MG tumor cells: 0.1˜0.4%
